# PubChem BioAssay AID1671190 (National Center for Advancing Translational Sciences (NCATS), 2021)
# By UniProt entry, the sequences of proteins in these tests, tags left out.
# UniProt P18054, whole entry, looked up: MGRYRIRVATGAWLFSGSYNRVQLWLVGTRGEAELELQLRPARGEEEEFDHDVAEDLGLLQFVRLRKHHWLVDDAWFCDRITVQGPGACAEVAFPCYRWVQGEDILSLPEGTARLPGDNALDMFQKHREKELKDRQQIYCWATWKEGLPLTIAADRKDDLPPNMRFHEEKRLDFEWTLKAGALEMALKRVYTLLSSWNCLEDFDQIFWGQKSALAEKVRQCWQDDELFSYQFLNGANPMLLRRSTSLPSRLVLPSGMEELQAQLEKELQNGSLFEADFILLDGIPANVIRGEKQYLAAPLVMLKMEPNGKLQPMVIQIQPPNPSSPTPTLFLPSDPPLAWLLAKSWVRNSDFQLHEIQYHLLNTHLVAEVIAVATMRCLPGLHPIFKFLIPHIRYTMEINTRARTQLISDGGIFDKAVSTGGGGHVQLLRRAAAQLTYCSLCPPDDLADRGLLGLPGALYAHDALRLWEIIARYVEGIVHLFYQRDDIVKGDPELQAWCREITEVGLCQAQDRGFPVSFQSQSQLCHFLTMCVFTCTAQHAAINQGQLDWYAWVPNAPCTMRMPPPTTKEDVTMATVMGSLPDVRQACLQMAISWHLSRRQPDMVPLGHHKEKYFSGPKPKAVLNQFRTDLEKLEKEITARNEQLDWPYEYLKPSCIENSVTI
# Several values for one entry are separate records, joined by “and”; a condition that tells them apart may be missing. Equal entries are not always repeated. About 6,100 (1.1%) of roughly 580,000 compounds were called active. Inconclusive results, whose numbers are uncertain, are shown with a selection of clear calls. Calls follow the shape of the dose curve; as a rule, active = well fitted inhibition curve with a large enough effect; inconclusive = small, poorly fitted or top-dose-only effect, or another doubt; inactive = no such curve, though single readings can be large or run the other way. A potency beside an inconclusive call is a rough fit, not a confirmed value.
# Target: Polyunsaturated fatty acid lipoxygenase ALOX12 (Homo sapiens) (UniProt P18054)
# Assay: Primary qHTS assay for inhibitors of human arachidonate 12S-lipoxygenase (ALOX12): Round 2
# Settings: purified 12hLO, xylenol orange hydroperoxide absorbance; activity change, negative = inhibition: at 108 µM (top of the series)
# Summary of the method: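 Hydroperoxide product was detected by ferrous iron/xylenol orange as the 573 to 405 nm absorbance ratio. Arachidonic acid at 40 uM (final) was turned over for 30 min at room temperature by 150 nM human 12hLO, pH 7.0 Hepes buffer, after 15 min compound preincubation.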
# % is scaled to controls: 0 for no effect and ±100 for the full control effect; potency is read from the fitted curve at half-maximal effect.
SMILES,Potency,"activity change, negative = inhibition"
O=C1NC(=S)NC(=O)C1=Cc1c(Cl)cccc1Cl,"inconclusive: 56.2 µM [inhibitor, partial curve, poor fit]",
Nc1ccc(Br)cc1C(=O)c1ccc(Cl)cc1,"inconclusive: 44.7 µM [inhibitor, partial curve, poor fit]",
COc1ccc2[nH]c(C)c(CCNCCC3=C(C)CCCC3(C)C)c2c1,"inconclusive: 5.01 µM [inhibitor, full curve, poor fit]",
COc1cc2c3cc1Oc1c(OC)c(OC)cc4c1[C@H](Cc1ccc(cc1)Oc1cc(ccc1O)C[C@H]3N(C)CC2)N(C)CC4,"inconclusive: 31.6 µM [inhibitor, partial curve, poor fit]",
Cc1cc(C)cc(NC(=O)CN2C(=O)CN=C(c3ccccc3)c3cc(Cl)ccc32)c1,inactive,
Cc1ccc(N2C(=O)NC(=O)/C(=C/C=C/c3ccco3)C2=O)cc1,"inconclusive: 3.98 µM [inhibitor, full curve]",
O=[N+]([O-])c1ccc(NCCOc2cccc3ccccc23)c2ncccc12,inactive,
CN1C(=O)N(C)C2(CCN(Cc3cn4cc(Cl)ccc4n3)C2)C1=O (stereo not given),"inconclusive: 7.94 µM [inhibitor, full curve, poor fit]",
CCC(=NCc1ccc2c(c1)OCO2)c1c(O)n(C)c(=O)n(C)c1=O,"inconclusive: 50.1 µM [inhibitor, partial curve]",
CCCCn1c(C)c(C(=O)OCC)c2c(CN3CCCC3)c(O)ccc21,"inconclusive: 39.8 µM [inhibitor, partial curve, poor fit]",
COc1ccc2nc(-c3ccc(CN4CCC(n5c(=O)[nH]c6cc(Cl)ccc65)CC4)cc3)c(-c3ccccc3)nc2c1,"inconclusive: 112 µM [inhibitor, partial curve, poor fit]",
O=c1cccc2n1CC1CC2CN(Cc2cc3n(n2)CCNC3)C1 (stereo not given),"inconclusive: 11.2 µM [inhibitor, full curve, poor fit]",
CCOC(=O)[C@]12Cc3c(cc(OC)c(OC)c3OC)[C@H]1N(C(C)C)C(=O)c1cc(OC)ccc12,"inconclusive: 44.7 µM [inhibitor, partial curve, poor fit]",
Cc1ccnc(NS(=O)(=O)c2ccc(N=Cc3c(O)n(C)c(=O)n(C)c3=O)cc2)n1,active: 5.01 µM,
C#C[C@H]1CN2CC[C@H]1C[C@@H]2CNC(=O)C1CC1,inactive,
Cc1cc(C=C2C(=O)NC(=S)NC2=O)c(C)n1-c1ccc2c(c1)OCO2,"inconclusive: 11.2 µM [inhibitor, full curve, poor fit]",
Cc1ccc(OCC(=O)N2CCN(Cc3ccc(F)cc3)CC2)cc1,"inconclusive: 1.78 µM [inhibitor, full curve, poor fit]",
CC(=O)N(O)CCCP(=O)(O)O,"inconclusive: 39.8 µM [inhibitor, single point]",
CCC1C(=O)OCC1Cc1cncn1C (stereo not given),"inconclusive: 35.5 µM [inhibitor, partial curve, poor fit]",
CN(C)C(=S)SSC(=S)N(C)C,"inconclusive: 8.91 µM [inhibitor, partial curve, poor fit]",

SMILES,Potency,"activity change, negative = inhibition"
COc1cccc(NP(=O)(Oc2ccccc2)Oc2ccccc2)c1,inactive,
CCc1ccc(N2C(=O)NC(=O)/C(=C\c3cccn3CCOc3ccc(C(C)C)cc3)C2=O)cc1,"inconclusive: 44.7 µM [inhibitor, partial curve, poor fit]",
Cc1ccc(OCC(=O)N2CCN(CC3CC4C=CC3C4)CC2)cc1 (stereo not given),"inconclusive: 0.447 µM [inhibitor, full curve, poor fit]",
CCOC(=O)[C@]12Cc3cc(C)ccc3[C@H]1N(Cc1ccccc1)C(=O)c1cc(OC)ccc12,"inconclusive: 141 µM [inhibitor, single point]",
O=c1[nH]c(=O)n(Cc2ccccc2)c(O)c1/C=C1\C=Nc2ccccc21,"inconclusive: 56.2 µM [inhibitor, partial curve, poor fit]",
C/C(=N/NC(N)=S)c1ccc(Cl)cc1,"inconclusive: 50.1 µM [inhibitor, partial curve, poor fit]",
CCN1CCN(Cc2nnnn2C(C)(C)C)CC1,"inconclusive: 31.6 µM [inhibitor, partial curve, poor fit]",
C=Cc1ccc(Cn2c(C(=O)O)c(C=O)c3ccccc32)cc1,"inconclusive: 50.1 µM [inhibitor, partial curve, poor fit]",
Cc1ccc(C(C)(C)C)c(OCC(=O)Nc2ccc(Cl)cc2C(=O)c2ccccc2)c1,"inconclusive: 112 µM [inhibitor, partial curve, poor fit]",
O=C(Cc1ccccc1)OCc1ccccc1,inactive,
N#CC1c2ccccc2-n2nncc2CN1S(=O)(=O)c1cc(Cl)cc(Cl)c1 (stereo not given),"inconclusive: 89.1 µM [inhibitor, single point]",
Cn1c(=O)c2c(nc(N/N=C/c3c(O)n(C4CCCCC4)c(=S)[nH]c3=O)n2C)n(C)c1=O,"inconclusive: 35.5 µM [inhibitor, partial curve, poor fit]",
CN1CCN(Cc2cc(=O)n3ccsc3n2)CC1,inactive,
CCCCCC[N+](=O)[O-],,inconclusive: -31.9% [inhibitor]
Oc1ccc([C@H]2CNCc3c2ccc(O)c3O)cc1O,"inconclusive: 1.44 µM [inhibitor, full curve]",
N#CC1c2ccccc2-n2nncc2CN1S(=O)(=O)c1ccc(Cl)cc1 (stereo not given),"inconclusive: 28.2 µM [inhibitor, partial curve, poor fit]",
CCOC(=O)c1ccc(N=C(CC)c2c(O)n(C)c(=O)n(C)c2=O)cc1,"inconclusive: 35.5 µM [inhibitor, partial curve, poor fit]",
Cn1nc(-c2ccc(OCC(=O)N3CCN(Cc4ccccc4)CC3)cc2)c2ccccc2c1=O,"inconclusive: 112 µM [inhibitor, single point]",
O=c1[nH]c(=S)[nH]c(O)c1N=Nc1ccc(SC(F)F)cc1,"inconclusive: 44.7 µM [inhibitor, partial curve, poor fit]",
O=C(Nc1ccc(Cl)c(Cl)c1)c1ccco1,inactive,

# Part of the list above in a different format:
SMILES	Potency	activity change, negative = inhibition
CCN1CCN(Cc2nnnn2C(C)(C)C)CC1	inconclusive: 31.6 µM [inhibitor, partial curve, poor fit]	
C=Cc1ccc(Cn2c(C(=O)O)c(C=O)c3ccccc32)cc1	inconclusive: 50.1 µM [inhibitor, partial curve, poor fit]	

# (more compounds)

SMILES,Potency,"activity change, negative = inhibition"
CCN1C(=O)C(=Cc2cc(C)n(C3CC3)c2C)C(=O)N(CC)C1=S,"inconclusive: 50.1 µM [inhibitor, partial curve, poor fit]",
COCCN1CCN(C(=O)C2C(C)(C)C2(C)C)[C@H]2CS(=O)(=O)C[C@H]21,inactive,
C[C@@]1(CO)[C@H](O)CC[C@@]2(C)[C@H]1CC[C@H]1C[C@@H]3C[C@@]12CC[C@]3(O)CO,"inconclusive: 141 µM [inhibitor, single point]",
CC1=C(C(=O)OCc2ccc3c(c2)OCO3)[C@H]2C[C@](C)(N1)Oc1ccccc12,"inconclusive: 100 µM [inhibitor, single point]",
O=[N+]([O-])c1ccc(NCCOc2ccccc2)c2ncccc12,inactive,
S=C(NCCc1ccccc1)N1Cc2cc(-c3ccccc3)ccc2-n2nncc2C1,"inconclusive: 39.8 µM [inhibitor, partial curve]",
O=C(O)C1=NOC2CN(Cc3ccncc3)CC12 (stereo not given),"inconclusive: 11.2 µM [inhibitor, full curve, poor fit]",
COc1cc2c(cc1CCc1ccccc1)N(C(=O)CC(C)C)CC21CCN(C(C)=O)CC1,"inconclusive: 79.4 µM [inhibitor, single point]",
CCC(C)n1c(O)c(C=NCc2cccnc2)c(=O)[nH]c1=S (stereo not given),"inconclusive: 35.5 µM [inhibitor, partial curve, poor fit]",
NC(N)=N/N=C/c1ccc(N(c2ccccc2)c2ccccc2)cc1,"inconclusive: 35.5 µM [inhibitor, single point]",
O=C1NC[C@H]2CN(Cc3cccs3)CCN12,inactive,
O=C(COc1ccc(Cl)cc1)N1CCN(Cc2ccc([N+](=O)[O-])cc2)CC1,"inconclusive: 3.16 µM [inhibitor, full curve, poor fit]",
COC(=O)c1cncn1C(C)c1ccccc1 (stereo not given),"inconclusive: 18.1 µM [inhibitor, single point] and inconclusive: 28.2 µM [inhibitor, partial curve, poor fit]",
COc1ccc(CNCCc2c[nH]c3ccccc23)c(OC)c1C,"inconclusive: 2.24 µM [inhibitor, full curve] and inconclusive: 7.94 µM [inhibitor, full curve]",
O=C(N1CCCC1)N1C2CCC1CN(Cc1cccnc1)C2,"inconclusive: 112 µM [inhibitor, single point]",
C=CCn1cc(C=C2C(=O)N(C)C(=O)N(C)C2=O)c2ccccc21,inactive,
COC(=O)C1=C(c2ccc(S(C)(=O)=O)cc2)C[C@@H]2CC[C@H]1N2C(=O)NCc1cccc2ccccc12,"inconclusive: 89.1 µM [inhibitor, single point]",
C=C1C(=O)O[C@@H]2C[C@@H](C)[C@@H]3C=CC(=O)[C@@]3(C)[C@@H](OC(=O)CC(=O)O[C@H]3[C@@H]4C(=C)C(=O)O[C@@H]4C[C@@H](C)[C@@H]4C=CC(=O)[C@]43C)[C@H]12,"inconclusive: 50.1 µM [inhibitor, partial curve, poor fit]",
COc1ccc(OC)c(C2SCC(=O)Nc3c2c(C)nn3-c2ccccc2)c1 (stereo not given),"inconclusive: 112 µM [inhibitor, single point]",
CCCS(=O)(=O)Nc1ccc(=O)n2c1[C@@H]1C[C@@H](CN(C(=O)Nc3ccc(OC)cc3)C1)C2,inactive,

# Filtered by structure: those above with a carbonyl joined to an NH by a bond outside any ring (six)
SMILES,Potency,"activity change, negative = inhibition"
Cc1cc(C)cc(NC(=O)CN2C(=O)CN=C(c3ccccc3)c3cc(Cl)ccc32)c1,inactive,
C#C[C@H]1CN2CC[C@H]1C[C@@H]2CNC(=O)C1CC1,inactive,
Cc1ccc(C(C)(C)C)c(OCC(=O)Nc2ccc(Cl)cc2C(=O)c2ccccc2)c1,"inconclusive: 112 µM [inhibitor, partial curve, poor fit]",
O=C(Nc1ccc(Cl)c(Cl)c1)c1ccco1,inactive,
COC(=O)C1=C(c2ccc(S(C)(=O)=O)cc2)C[C@@H]2CC[C@H]1N2C(=O)NCc1cccc2ccccc12,"inconclusive: 89.1 µM [inhibitor, single point]",
CCCS(=O)(=O)Nc1ccc(=O)n2c1[C@@H]1C[C@@H](CN(C(=O)Nc3ccc(OC)cc3)C1)C2,inactive,
